{
  "source": "paper PMC5089723",
  "about": "“Structural Insights into the Nucleotide-Binding Domains of the P1B-type ATPases HMA6 and HMA8 from Arabidopsis thaliana” (PLoS ONE, 2016)",
  "assay_in_all_cases": "SEC; HiLoad 26/60 Superdex 75; 20 mM Mops pH 7.0, 150 mM NaCl (HMA8^N) or 20 mM potassium phosphate pH 7.0, 150 mM KCl (HMA6^N-AA); tags cleaved; both purified",
  "key": {"[1]": {"biological_target": "nucleotide-binding domain of HMA8 (HMA8^N, residues 557-689) (Arabidopsis thaliana) (UniProt B9DFX7)"}, "[2]": {"biological_target": "nucleotide-binding domain of HMA6 (HMA6^N, residues 607-734) (Arabidopsis thaliana) (UniProt Q9SZC9)"}, "[3]": {"biological_target": "HMA6^N-AA (nucleotide-binding domain of HMA6, residues 607-734, double mutant EE709AA) (Arabidopsis thaliana) (UniProt Q9SZC9)"}},
  "note": "These are yes or no findings as the source states them, for the method shown.",
  "data": [
    {"binder": "nucleotide-binding domain of HMA8 (HMA8^N, residues 557-689) (domain or fragment, UniProt B9DFX7 557-689) GASRPVVSGVASLGYEEQEVLKMAAAVEKTATHPIAKAIVNEAESLNLKTPETRGQLTEPGFGTLAEIDGRFVAVGSLEWVSDRFLKKNDSSDMVKLESLLDHKLSNTSSTSRYSKTVVYVGREGEGIIGAIAISD", "values": [
      {"measurement": "binding", "setting": "[1]", "result": "no binding"}
    ]},
    {"binder": "nucleotide-binding domain of HMA6 (HMA6^N, residues 607-734) (domain or fragment, UniProt Q9SZC9 607-734) GASHPVVTEVIIPENPRHNLNDTWSEVEVLMLAAAVESNTTHPVGKAIVKAARARNCQTMKAEDGTFTEEPGSGAVAIVNNKRVTVGTLEWVKRHGATGNSLLALEEHEINNQSVVYIGVDNTLAAVIRFE", "values": [
      {"measurement": "binding", "setting": "[2]", "result": "no binding"}
    ]},
    {"binder": "HMA6^N-AA (nucleotide-binding domain of HMA6, residues 607-734, double mutant EE709AA) (domain or fragment, UniProt Q9SZC9 607-734, SeMet-substituted) GASHPVVTEVIIPENPRHNLNDTWSEVEVLMLAAAVESNTTHPVGKAIVKAARARNCQTMKAEDGTFTEEPGSGAVAIVNNKRVTVGTLEWVKRHGATGNSLLALAAHEINNQSVVYIGVDNTLAAVIRFE", "values": [
      {"measurement": "binding", "setting": "[3]", "result": "no binding"}
    ]}
  ]
}
